# Assay results reported in the supplement of paper PMC12889115.
# The other results are listed elsewhere or left out. Values are raw readings; no control value is given beside them.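 In the initial screen, polymyxin B was used at a concentration that permeabilizes Salmonella's outer membrane but not its inner membrane. Maximum growth was set by DMSO wells with or without polymyxin B. Since plates varied, data were ranked per plate, and compounds giving the lowest OD600 advanced as hits.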
# System: Salmonella enterica serovar Typhimurium SL1344
# Assay: bacterial growth OD600 after 18 h with compound and polymyxin B; higher = more bacterial growth (less inhibition)
# Settings: 50 µM, Mueller-Hinton broth
Structure (SMILES),bacterial growth OD600 (polymyxin B 0.75 µg/mL),bacterial growth OD600 (polymyxin B 1 µg/mL)
Cc1ccc2c(c1)CN(CCNC(=O)CSc1ccccc1)CC(C)O2 (stereo not given),0.795,–
Cc1ccc(CN(C)c2ccc(C(=O)NCCC3CCCCN3C)cn2)o1 (stereo not given),–,0.91
O=C(CCCn1cncn1)N1CCOc2ccc(CN3CCC(OCc4ccccc4)CC3)cc2C1,0.858,–
Cc1cn2c(C(=O)N(C)CC3CCCN(CCc4ccccc4F)C3)csc2n1 (stereo not given),0.892,–
Fc1ccccc1OC1CCN(Cc2nc(-c3ccccn3)no2)CC1,0.792,–
CO[C@H]1[C@H](NC(=O)c2ccccn2)c2ccccc2C12CCN(C(=O)C#Cc1ccccc1)CC2,-0.003,–
COc1ccc(CNC2Cc3ccccc3C2)c(OCC(O)CN2CCCC2)c1 (stereo not given),–,1.07
CC(C)Cc1cn[nH]c1C1CCCN(Cc2cnn(-c3ccc(F)cc3)c2)C1 (stereo not given),0.847,–
COc1ccc2c(c1)-c1nc(-n3ncc(C(=O)N4CCN(C5CCCC5)CC4)c3C3CC3)ncc1CC2,0.778,–
c1ccc(NC2CCCN(Cc3cc4ccccc4o3)C2)cc1 (stereo not given),–,1.13
COc1ccc(-c2cn3c(C(=O)NCCC(C)C)csc3n2)cc1F,–,1.14
CCN1CCN(c2ccc(C(=O)NCCCn3ccnc3C(C)C)cn2)CC1,–,0.973
OCCC1CN(Cc2ccc(O)cc2)CCN1CC1CCCCC1 (stereo not given),–,0.988
COCCCC1CCN(Cc2c(C(=O)N3C[C@@H](C)O[C@@H](C)C3)nc3sccn23)CC1,–,0.902
C1CCC(CNc2nc3nonc3nc2N2CCOCC2)(N2CCOCC2)C1,0.848,–
O=C(NC1CC(=O)N(Cc2ccccc2Cl)C1)c1ccsc1 (stereo not given),–,0.85
CCn1nc(C)c(CN2CCC(C(Cc3ccc(F)cc3F)N(C)C(=O)c3ccco3)CC2)c1C (stereo not given),0.96,–
COc1ccc2c(c1)OC(C)CN(C(=O)c1ccc(C(F)(F)F)cc1)C2 (stereo not given),0.73,–
O=C(c1ccc(C(F)(F)F)cc1)N1CCCC(CO)(Cc2ccccc2F)C1 (stereo not given),–,0.593
CS(=O)(=O)N1CCC(Oc2cccc(C(=O)NCCCc3ccccc3)c2)CC1,–,0.924

# Part of the list above in order of molar mass, smallest number first:
Structure (SMILES),bacterial growth OD600 (polymyxin B 0.75 µg/mL),bacterial growth OD600 (polymyxin B 1 µg/mL)
c1ccc(NC2CCCN(Cc3cc4ccccc4o3)C2)cc1 (stereo not given),–,1.13
Cc1ccc2c(c1)CN(CCNC(=O)CSc1ccccc1)CC(C)O2 (stereo not given),0.795,–
CC(C)Cc1cn[nH]c1C1CCCN(Cc2cnn(-c3ccc(F)cc3)c2)C1 (stereo not given),0.847,–
